Reference: patent US20240374745A1
Results are given in words; binding and its absence hold for the method and conditions named. Some binding calls cover weakened binding; strength is not graded here.

Biological target: Recombinant LRP1 (residues 20-974), StrepII-tagged fusion with the human IgG1 Fc region
Experiment: affinity depletion on LRP1-conjugated resin, read by pore-limited native PAGE

B1: A2M TR S1, non-native component (protein)
chain: SVSGKPQYMVLVPSLLHTETTEKGCVLLSYLNETVTVSASLESVRGNRSLFTDLEAENDVLHCVAFAVPKSSSNEEVMFLTVQVKGPTQEFKKRTTVMVKNEDSLVFVQTDKSIYKPGQTVKFRVVSMDENFHPLNELIPLVYIQDPKGNRIAQWQSFQLEGGLKQFSFPLSSEPFQGSYKVVVQKKSGGRTEHPFTVEEFVLPKFEVQVTVPKIITILEEEMNVSVCGLYTYGKPVPGHVTVSICRKYSDASDCHGEDSQAFCEKFSGQLNSHGCFYQQVKTKVFQLKRKEYEMKLHTEAQIQEEGTVVELTGRQSSEITRTITKLSFVKVDSHFRQGIPFFGQVRLVDGKGVPIPNKVIFIRGNEANYYSNATTDEHGLVQFSINTTNVMGTSLTVRVNYKDRSPCYGYQWVSEEHEEAHHTAYLVFSPSKSFVHLEPMSHELPCGHTQTVQAHYILNGGTLLGLKKLSFYYLIMAKGGIVRTGTHGLLVKQEDMKGHFSISIPVKSDIAPVARLLIYAVLPTGDVIGDSAKYDVENCLANKVDLSFSPSQSLPASHAHLRVTAAPQSVCALRAVDQSVLLMKPDAELSASSVYNLLPEKDLTGFPGPLNDQDDEDCINRHNVYINGITYTPVSSTNEKDMYSFLEDMGLKAFTNSKIRKPKMCGGSGGSGGSGGSGGGGSPQGIAGQGGSGGSGGSGGSGGSETVRKYFPETWIWDLVVVNSAGVAEVGVTVPDTITEWKAGAFCLSEDAGLGISSTASLRAFQPFFVELTMPYSVIRGEAFTLKATVLNYLPKCIRVSVQLEASPAFLAVPVEKEQAPHCICANGRQTVSWAVTPKSLGNVNFTVSAEALESQELCGTEVPSVPEHGRKDTVIKPLLVEPEGLEKETTFNSLLCPSGGEVSEELSLKLPPNVVEESARASVSVLGDILGSAMQNTQNLLQMPYGCGEQNMVLFAPNIYVLDYLNETQQLTPEVKSKAIGYLNTGYQRQLNYKHYDGSYSTFGERYGRNQGNTWLTAFVLKTFAQARAYIFIDEAHITQALIWLSQRQKDNGCFRSSGSLLNNAIKGGVEDEVTLSAYITIALLEIPLTVTHPVVRNALFCLESAWKTAQEGDHGSHVYTKALLAYAFALAGNQDKRKEVLKSLNEEAVKKDNSVHWERPQKPKAPVGHFYEPQAPSAEVEMTSYVLLAYLTAQPAPTSEDLTSATNIVKWITKQQNAQGGFSSTQDTVVALHALSKYGAATFTRTGKAAQVTIQSSGTFSSKFQVDNNNRLLLQQVSLPELPGEYSMKVTGEGCVYLQTSLKYNILPEKEEFPFALGVQTLPQTCDEPKAHTSFQISLSVSYTGSRSASNMAIVDVKMVSGFIPLKPTVKMLERSNHVSRTEVSSNHVLIYLDKVSNQTLSLFFTVLQDVPVRDLKPAIVKVYDYYETDEFAIAEYNAPCSKDLGNA
B1 was tested. Which binding did it give?
Its binding is “binds”.
